Test results: the supplement of paper PMC10849652
This is one part of the list.

The chains behind the UniProt entries cited, without tags or fusion partners. Where a name states a change or a piece, a line headed by the entry shows the natural chain unless it says otherwise.
UniProt Q9BTV4: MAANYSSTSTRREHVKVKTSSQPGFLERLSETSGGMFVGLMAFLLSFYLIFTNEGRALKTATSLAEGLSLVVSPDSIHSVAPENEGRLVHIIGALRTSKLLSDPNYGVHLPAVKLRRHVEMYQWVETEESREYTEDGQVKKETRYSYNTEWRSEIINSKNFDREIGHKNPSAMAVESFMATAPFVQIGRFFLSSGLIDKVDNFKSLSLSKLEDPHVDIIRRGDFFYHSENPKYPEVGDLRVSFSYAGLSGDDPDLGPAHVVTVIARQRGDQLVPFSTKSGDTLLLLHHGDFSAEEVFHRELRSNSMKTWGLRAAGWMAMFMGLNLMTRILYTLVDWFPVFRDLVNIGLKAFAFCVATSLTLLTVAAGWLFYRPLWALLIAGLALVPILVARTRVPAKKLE
UniProt O15321, whole entry, looked up: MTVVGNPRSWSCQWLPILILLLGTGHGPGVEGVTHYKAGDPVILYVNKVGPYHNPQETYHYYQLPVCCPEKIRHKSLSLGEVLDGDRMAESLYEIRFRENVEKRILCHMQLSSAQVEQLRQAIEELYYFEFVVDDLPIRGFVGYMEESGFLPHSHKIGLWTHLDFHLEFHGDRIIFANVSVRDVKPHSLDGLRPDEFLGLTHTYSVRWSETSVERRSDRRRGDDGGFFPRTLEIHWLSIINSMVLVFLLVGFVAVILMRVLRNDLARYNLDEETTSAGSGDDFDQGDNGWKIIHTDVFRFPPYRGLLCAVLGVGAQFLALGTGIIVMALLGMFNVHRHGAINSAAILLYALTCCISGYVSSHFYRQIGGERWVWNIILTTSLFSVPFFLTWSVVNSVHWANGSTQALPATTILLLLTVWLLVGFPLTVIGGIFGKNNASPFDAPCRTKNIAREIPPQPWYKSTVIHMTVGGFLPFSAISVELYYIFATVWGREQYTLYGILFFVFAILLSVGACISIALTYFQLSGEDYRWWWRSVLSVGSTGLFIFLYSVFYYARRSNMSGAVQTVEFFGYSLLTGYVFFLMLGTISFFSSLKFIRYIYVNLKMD
UniProt Q7Z403: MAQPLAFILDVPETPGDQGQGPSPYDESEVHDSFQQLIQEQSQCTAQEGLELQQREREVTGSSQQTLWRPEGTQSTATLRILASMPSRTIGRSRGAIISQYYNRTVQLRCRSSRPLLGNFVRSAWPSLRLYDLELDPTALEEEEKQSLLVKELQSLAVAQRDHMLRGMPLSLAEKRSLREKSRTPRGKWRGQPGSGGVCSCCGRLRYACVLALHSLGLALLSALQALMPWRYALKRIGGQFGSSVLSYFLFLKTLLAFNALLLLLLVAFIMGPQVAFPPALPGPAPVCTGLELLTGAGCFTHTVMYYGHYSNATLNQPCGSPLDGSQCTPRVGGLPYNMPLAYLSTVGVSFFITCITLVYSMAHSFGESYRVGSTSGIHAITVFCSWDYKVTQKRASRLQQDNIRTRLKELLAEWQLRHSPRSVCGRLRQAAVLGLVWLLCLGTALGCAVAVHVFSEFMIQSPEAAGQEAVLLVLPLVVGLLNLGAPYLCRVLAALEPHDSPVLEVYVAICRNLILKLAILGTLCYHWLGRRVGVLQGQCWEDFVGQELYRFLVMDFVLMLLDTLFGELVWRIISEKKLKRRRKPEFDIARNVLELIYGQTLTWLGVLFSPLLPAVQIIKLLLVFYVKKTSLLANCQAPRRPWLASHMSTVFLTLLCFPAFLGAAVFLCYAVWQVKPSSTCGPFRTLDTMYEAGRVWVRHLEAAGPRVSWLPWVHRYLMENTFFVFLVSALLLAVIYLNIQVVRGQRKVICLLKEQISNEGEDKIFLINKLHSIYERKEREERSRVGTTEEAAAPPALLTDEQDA
UniProt Q0VDI3: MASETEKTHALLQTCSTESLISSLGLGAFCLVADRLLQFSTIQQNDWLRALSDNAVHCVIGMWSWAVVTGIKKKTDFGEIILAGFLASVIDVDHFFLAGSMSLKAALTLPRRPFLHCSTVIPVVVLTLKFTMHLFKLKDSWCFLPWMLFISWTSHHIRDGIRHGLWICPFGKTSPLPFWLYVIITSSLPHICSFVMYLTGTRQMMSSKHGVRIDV
UniProt Q9NV96: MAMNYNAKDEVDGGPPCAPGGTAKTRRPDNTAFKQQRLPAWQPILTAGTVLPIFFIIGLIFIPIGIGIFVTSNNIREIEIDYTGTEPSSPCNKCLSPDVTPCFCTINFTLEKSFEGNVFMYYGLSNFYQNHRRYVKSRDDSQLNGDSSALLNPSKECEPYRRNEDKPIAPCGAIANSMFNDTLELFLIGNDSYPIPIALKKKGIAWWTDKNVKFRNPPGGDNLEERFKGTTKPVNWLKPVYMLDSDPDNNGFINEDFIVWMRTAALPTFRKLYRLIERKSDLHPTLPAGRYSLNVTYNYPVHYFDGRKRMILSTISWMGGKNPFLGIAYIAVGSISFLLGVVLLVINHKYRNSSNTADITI
UniProt Q9HD45: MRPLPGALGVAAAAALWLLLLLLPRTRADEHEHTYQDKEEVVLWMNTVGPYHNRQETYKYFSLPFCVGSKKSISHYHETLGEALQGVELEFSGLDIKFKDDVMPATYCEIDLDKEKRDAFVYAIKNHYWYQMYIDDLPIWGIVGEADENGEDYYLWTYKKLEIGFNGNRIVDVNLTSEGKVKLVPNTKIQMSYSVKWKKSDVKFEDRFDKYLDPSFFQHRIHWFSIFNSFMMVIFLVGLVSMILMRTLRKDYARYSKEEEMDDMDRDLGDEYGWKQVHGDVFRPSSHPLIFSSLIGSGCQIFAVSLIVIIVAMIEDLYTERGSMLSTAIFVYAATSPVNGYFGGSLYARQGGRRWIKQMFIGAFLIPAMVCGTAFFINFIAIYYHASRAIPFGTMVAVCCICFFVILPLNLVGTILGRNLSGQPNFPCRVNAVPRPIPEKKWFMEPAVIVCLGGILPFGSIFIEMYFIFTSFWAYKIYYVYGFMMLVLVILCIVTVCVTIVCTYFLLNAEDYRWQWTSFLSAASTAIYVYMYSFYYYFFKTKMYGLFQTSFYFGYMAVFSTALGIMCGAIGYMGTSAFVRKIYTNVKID
UniProt Q71RG4: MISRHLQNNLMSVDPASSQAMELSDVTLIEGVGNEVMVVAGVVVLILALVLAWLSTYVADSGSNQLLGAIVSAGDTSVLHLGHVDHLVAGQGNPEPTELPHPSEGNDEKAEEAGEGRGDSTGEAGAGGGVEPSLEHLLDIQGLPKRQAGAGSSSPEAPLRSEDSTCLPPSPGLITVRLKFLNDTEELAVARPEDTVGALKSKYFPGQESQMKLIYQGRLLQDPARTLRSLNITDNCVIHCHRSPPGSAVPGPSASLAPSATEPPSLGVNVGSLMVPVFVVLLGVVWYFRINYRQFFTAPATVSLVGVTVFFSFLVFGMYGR
UniProt P62328: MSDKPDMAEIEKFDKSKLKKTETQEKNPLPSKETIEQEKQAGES
UniProt Q6PI78: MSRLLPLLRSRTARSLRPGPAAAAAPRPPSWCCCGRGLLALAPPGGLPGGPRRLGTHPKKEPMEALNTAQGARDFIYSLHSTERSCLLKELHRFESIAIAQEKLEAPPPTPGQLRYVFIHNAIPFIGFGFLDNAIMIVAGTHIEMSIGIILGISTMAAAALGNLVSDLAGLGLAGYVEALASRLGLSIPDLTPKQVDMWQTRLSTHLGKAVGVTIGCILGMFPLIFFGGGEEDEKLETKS
UniProt Q8TDI8: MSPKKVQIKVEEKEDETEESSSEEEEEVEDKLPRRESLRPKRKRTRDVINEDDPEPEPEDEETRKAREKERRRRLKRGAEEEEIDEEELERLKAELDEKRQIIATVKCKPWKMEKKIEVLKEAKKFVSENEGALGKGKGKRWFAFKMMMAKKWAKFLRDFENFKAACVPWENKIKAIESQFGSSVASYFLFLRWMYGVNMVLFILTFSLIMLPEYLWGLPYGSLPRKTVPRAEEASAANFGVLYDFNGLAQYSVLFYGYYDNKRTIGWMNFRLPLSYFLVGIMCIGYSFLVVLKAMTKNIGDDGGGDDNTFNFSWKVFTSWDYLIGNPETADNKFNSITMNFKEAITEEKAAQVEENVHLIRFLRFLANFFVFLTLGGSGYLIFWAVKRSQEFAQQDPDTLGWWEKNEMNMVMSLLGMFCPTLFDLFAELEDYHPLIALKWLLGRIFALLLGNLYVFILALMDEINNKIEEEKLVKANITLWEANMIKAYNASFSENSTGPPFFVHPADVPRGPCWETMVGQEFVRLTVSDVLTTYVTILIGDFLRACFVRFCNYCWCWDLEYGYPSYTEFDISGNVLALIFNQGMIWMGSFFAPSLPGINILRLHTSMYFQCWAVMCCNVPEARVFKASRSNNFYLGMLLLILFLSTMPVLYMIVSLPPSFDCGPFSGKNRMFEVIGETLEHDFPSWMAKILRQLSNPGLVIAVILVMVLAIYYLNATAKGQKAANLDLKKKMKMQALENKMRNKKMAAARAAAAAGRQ
UniProt Q08117: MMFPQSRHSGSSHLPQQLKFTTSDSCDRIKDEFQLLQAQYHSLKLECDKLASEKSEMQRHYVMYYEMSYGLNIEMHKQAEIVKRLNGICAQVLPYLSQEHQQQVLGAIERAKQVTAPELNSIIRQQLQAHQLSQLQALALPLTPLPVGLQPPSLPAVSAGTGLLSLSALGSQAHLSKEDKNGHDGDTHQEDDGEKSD
UniProt Q9NWD8: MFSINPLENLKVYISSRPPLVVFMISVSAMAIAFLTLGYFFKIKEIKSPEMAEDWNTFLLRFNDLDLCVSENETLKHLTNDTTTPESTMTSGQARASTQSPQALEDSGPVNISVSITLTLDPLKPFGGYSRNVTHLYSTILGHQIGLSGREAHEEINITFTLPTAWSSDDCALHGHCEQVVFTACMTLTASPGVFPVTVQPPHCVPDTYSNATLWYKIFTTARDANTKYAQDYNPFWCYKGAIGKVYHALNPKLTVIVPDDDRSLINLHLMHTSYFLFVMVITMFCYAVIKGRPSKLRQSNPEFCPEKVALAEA
UniProt Q9ULS5: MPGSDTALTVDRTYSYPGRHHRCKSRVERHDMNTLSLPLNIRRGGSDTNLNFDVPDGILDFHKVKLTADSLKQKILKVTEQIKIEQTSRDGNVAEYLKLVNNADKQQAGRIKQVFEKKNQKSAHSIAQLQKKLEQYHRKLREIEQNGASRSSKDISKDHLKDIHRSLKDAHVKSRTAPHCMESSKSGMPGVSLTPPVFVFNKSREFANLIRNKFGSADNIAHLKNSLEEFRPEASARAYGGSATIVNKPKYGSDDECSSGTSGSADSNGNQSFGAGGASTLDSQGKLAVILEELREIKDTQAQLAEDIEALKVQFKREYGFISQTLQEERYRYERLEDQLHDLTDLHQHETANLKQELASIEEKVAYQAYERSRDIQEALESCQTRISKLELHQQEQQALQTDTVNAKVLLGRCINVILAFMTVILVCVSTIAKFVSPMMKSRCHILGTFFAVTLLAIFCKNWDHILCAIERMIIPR
UniProt Q9Y3A6: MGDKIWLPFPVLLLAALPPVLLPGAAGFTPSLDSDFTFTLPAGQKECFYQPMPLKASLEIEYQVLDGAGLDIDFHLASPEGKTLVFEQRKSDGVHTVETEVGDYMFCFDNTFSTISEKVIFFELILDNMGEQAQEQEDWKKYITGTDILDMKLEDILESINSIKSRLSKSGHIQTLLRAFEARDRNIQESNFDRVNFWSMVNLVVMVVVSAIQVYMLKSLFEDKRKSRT
UniProt Q9H0V1: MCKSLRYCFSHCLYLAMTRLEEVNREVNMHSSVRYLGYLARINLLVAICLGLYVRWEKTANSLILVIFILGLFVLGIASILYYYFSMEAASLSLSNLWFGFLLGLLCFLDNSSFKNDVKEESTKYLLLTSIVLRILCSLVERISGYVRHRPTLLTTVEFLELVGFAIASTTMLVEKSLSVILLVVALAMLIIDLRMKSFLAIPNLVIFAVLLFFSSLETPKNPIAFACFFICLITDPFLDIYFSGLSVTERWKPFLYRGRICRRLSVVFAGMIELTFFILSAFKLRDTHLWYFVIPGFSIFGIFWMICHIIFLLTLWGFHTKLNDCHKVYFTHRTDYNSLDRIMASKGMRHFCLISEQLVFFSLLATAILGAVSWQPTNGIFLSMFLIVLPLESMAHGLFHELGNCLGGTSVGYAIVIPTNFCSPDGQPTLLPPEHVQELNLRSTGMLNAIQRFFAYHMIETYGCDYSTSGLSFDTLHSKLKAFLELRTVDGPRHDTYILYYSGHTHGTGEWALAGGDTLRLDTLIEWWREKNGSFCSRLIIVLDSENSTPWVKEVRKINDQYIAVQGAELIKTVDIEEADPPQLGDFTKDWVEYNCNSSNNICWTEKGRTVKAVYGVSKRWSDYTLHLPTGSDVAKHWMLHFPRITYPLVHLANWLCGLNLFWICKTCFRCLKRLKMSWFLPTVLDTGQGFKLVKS
UniProt Q13829: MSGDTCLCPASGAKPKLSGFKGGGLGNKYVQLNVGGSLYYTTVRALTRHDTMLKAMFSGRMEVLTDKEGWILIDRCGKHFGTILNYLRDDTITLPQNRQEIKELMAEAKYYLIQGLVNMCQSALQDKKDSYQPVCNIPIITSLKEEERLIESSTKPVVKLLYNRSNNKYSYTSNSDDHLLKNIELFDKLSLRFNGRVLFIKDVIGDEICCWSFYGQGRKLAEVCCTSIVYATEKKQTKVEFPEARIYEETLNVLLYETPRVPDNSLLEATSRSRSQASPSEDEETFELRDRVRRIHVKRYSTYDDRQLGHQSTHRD

Compound: c1cn2cc(-c3ccc4cn[nH]c4c3)nc(Nc3ccc(N4CCOCC4)cc3)c2n1 [entospletinib]
Assay: log2 fold change, soluble protein after heating vs DMSO (PISA); higher = thermal stabilisation; K562 cells, 10 uM, 30 min; active = over 0.2 and 3.5 SD of the protein, either way, in both replicates (recomputed)
How it was run: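 K562 cells at 2×10^6 cells/mL were treated for 30 min with 10 μM compound, and aliquots were heated for 3 min over 48°C-58°C before pooling. Extraction used PBS with 0.5% NP-40 at 4°C, and soluble protein was the supernatant after 21,000xg for 90 min, measured by TMTpro 16plex LC-MS/MS with channel sums equalised. Thermal stability values, relative to control samples and from duplicates, are log2 fold changes.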

log2 fold change, inactive:
TMA16 (UniProt Q96EY4) 0.063
TMEM43 (UniProt Q9BTV4) -0.004
TMEM199 (UniProt Q8N511) -0.015
TM9SF1 (UniProt O15321) 0.135
TMC6 (UniProt Q7Z403) 0.179
TMEM267 (UniProt Q0VDI3) -0.094
TMEM30A (UniProt Q9NV96) -0.024
TLN2 (UniProt Q9Y4G6) -0.032
TMEM181 (UniProt Q9P2C4) -0.014
TMED9 (UniProt Q9BVK6) 0.008
TM9SF3 (UniProt Q9HD45) 0.024
TMUB2 (UniProt Q71RG4) -0.006
TMEM33 (UniProt P57088) 0.003
TMPO isoform 2 (UniProt P42167) 0
TMSB4X (UniProt P62328) 0.21
TMEM65 (UniProt Q6PI78) 0.109
TMEM87A (UniProt Q8NBN3) 0.035
TLE4 isoform 3 (UniProt Q04727) 0.038
TMF1 (UniProt P82094) 0.018
TMC1 (UniProt Q8TDI8) -0.162
TMX3 (UniProt Q96JJ7) -0.007
TLE5 isoform 2 (UniProt Q08117) 0.13
TMEM248 (UniProt Q9NWD8) -0.11
TMCC3 (UniProt Q9ULS5) -0.241
TMED5 (UniProt Q9Y3A6) -0.027
TMA7 (UniProt Q9Y2S6) 0.021
TMEM168 (UniProt Q9H0V1) 0.078
TMEM167B (UniProt Q9NRX6) 0.025
TNFAIP1 (UniProt Q13829) -0.017

Two successive records out of the list so far:
log2 fold change, inactive:
TMEM199 (UniProt Q8N511) -0.015
TM9SF1 (UniProt O15321) 0.135
